The other results are listed elsewhere or left out. Residues, ends and D or L forms follow the SMILES beside them. *: point of attachment. Cbz = O=C(OCc1ccccc1)*

Sequences of proteins named here, by UniProt entry; tags and fusion partners are left off. A change or cut given only in a name is not applied to a line headed by its entry.
UniProt O43826: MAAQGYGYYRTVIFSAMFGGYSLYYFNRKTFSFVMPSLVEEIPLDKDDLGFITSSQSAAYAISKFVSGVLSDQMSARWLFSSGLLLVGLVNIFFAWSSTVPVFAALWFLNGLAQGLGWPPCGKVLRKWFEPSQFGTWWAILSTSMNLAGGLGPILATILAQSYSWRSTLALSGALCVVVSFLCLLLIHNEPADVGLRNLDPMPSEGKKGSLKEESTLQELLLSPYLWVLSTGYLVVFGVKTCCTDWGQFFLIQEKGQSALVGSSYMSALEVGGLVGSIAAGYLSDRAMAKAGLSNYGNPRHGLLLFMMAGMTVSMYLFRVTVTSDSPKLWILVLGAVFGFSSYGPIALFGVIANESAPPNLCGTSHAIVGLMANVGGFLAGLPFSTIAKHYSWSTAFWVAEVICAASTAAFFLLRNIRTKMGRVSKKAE
UniProt Q9BQT8: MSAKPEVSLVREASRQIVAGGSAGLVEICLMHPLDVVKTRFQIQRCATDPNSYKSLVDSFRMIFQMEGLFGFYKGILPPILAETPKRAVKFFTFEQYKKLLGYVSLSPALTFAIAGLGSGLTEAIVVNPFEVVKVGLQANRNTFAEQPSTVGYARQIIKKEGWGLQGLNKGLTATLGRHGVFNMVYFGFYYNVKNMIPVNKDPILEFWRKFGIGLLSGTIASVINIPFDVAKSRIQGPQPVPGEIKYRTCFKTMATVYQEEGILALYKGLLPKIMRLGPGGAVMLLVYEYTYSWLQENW
UniProt O43772: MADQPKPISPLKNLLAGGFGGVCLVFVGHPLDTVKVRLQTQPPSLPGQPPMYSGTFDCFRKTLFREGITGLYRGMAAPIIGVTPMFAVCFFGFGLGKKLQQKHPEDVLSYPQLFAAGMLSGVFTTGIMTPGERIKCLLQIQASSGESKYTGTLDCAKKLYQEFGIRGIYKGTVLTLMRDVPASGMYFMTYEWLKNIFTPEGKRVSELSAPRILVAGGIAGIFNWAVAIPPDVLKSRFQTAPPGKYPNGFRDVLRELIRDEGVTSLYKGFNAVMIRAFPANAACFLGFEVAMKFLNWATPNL
UniProt Q00325: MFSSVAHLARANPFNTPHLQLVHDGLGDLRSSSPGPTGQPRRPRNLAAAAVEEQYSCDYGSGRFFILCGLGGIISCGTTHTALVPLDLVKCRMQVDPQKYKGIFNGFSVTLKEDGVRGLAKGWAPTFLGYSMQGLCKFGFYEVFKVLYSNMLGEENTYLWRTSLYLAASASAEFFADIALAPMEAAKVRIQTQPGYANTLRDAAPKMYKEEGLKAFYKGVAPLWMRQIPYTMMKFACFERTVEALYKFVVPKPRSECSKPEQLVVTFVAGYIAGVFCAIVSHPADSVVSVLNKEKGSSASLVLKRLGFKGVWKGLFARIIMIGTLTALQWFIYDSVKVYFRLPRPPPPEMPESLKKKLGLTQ
UniProt Q01650: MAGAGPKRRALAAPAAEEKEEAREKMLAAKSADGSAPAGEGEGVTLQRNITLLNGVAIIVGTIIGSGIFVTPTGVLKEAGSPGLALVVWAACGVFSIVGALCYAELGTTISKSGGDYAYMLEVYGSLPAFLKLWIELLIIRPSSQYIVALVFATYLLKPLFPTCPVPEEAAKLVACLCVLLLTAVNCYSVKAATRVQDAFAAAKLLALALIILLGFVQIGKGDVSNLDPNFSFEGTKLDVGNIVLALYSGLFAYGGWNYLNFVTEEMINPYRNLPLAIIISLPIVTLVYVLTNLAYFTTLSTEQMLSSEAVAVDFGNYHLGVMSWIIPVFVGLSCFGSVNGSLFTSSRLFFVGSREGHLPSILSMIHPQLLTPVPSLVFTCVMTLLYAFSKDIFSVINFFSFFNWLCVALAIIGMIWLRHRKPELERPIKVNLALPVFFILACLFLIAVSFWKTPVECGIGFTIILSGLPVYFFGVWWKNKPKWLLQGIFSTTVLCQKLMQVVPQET
UniProt Q8TBP6: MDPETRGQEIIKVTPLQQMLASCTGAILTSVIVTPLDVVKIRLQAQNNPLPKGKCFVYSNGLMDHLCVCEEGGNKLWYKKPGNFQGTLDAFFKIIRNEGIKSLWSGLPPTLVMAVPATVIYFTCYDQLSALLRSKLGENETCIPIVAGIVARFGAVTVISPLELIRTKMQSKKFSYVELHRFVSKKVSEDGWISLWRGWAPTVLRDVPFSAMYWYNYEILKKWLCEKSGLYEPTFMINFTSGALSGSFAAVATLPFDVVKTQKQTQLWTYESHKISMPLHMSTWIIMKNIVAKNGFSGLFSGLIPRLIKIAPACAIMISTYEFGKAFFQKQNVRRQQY
UniProt O43808: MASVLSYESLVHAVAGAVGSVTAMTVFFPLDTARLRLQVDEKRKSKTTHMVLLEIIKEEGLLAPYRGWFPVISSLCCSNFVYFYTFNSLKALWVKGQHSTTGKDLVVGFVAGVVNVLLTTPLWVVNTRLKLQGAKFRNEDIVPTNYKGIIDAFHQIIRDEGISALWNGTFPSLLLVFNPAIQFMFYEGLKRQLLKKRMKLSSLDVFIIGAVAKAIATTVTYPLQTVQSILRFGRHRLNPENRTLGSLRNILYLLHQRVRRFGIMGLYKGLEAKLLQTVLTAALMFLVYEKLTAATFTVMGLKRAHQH
UniProt Q9BXP2: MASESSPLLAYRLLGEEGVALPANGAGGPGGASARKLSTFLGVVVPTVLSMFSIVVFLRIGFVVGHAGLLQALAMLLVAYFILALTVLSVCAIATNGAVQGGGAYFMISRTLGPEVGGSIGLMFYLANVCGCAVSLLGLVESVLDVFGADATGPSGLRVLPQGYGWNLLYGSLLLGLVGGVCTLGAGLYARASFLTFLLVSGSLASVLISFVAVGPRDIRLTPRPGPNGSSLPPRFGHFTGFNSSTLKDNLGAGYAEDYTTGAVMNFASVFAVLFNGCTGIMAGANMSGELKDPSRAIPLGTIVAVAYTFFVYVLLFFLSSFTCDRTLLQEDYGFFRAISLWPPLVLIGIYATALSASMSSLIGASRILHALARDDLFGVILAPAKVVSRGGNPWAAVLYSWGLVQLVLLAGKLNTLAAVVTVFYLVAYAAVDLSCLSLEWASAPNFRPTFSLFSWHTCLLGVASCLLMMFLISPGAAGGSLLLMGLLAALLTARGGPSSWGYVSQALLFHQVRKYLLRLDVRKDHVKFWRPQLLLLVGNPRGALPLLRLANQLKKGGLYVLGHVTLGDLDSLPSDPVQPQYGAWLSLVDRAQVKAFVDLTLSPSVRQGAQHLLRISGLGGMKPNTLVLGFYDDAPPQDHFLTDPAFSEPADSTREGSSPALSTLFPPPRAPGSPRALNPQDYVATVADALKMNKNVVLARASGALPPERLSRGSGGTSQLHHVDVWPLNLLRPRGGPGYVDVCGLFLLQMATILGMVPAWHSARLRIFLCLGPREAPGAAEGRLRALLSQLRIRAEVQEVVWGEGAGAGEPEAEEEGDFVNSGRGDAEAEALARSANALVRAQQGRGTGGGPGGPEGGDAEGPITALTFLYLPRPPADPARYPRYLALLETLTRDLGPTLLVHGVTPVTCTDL
UniProt P53007, whole entry, looked up: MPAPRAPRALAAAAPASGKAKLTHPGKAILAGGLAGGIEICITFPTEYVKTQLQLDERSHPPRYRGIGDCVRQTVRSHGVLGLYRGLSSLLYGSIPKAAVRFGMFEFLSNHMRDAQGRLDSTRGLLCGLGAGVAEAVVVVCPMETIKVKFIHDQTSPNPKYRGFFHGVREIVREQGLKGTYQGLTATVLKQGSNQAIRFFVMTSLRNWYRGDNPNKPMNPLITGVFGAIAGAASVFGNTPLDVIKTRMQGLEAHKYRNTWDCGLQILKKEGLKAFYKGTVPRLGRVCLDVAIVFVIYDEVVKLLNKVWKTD
UniProt Q8WUM9: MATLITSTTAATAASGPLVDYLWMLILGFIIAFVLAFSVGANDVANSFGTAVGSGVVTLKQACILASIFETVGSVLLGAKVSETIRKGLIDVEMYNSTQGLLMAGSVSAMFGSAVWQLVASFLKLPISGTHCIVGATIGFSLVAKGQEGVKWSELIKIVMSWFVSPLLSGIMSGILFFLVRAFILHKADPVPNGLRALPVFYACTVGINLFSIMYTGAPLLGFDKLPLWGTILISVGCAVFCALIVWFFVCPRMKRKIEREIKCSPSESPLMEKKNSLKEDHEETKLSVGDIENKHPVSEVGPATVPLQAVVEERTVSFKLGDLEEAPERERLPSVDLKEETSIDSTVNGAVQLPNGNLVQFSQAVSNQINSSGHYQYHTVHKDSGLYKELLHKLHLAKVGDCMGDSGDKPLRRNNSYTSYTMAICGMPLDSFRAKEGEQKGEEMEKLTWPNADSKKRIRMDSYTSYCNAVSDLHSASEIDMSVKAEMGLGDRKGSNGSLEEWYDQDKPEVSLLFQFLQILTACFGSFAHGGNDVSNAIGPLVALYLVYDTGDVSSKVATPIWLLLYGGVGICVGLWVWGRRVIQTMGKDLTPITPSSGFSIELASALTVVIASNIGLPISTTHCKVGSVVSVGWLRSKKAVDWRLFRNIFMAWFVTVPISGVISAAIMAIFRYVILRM
UniProt P55011: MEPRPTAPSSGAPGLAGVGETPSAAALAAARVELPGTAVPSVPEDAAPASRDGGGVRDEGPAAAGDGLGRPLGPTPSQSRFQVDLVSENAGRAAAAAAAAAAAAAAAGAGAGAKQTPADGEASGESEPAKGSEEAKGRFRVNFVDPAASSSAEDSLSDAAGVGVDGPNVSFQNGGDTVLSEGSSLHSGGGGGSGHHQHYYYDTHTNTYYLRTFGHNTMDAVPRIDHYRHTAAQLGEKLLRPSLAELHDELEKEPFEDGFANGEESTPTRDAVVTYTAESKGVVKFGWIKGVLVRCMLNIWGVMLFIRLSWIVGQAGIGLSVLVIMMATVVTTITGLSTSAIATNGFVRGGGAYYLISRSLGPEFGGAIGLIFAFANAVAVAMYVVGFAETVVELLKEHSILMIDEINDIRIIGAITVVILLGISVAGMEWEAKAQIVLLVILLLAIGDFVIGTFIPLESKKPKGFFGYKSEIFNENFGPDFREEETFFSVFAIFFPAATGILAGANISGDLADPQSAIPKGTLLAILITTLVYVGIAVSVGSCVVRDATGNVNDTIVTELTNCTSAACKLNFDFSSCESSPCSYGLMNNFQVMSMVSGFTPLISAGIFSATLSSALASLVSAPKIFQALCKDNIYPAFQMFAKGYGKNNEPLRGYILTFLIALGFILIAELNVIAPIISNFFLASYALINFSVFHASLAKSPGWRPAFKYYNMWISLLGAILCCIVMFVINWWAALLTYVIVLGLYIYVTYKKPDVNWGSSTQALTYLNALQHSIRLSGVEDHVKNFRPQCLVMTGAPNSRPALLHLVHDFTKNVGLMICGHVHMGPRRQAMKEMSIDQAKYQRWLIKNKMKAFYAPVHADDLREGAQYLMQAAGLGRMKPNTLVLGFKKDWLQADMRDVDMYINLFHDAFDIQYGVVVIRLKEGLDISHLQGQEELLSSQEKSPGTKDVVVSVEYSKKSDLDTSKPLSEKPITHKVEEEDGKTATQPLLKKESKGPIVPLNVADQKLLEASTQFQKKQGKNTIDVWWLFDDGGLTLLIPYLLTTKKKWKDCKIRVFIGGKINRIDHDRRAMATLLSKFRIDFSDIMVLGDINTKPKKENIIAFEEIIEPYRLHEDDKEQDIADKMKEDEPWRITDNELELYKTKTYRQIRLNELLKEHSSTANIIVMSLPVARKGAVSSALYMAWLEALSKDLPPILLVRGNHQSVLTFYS
UniProt Q9Y289: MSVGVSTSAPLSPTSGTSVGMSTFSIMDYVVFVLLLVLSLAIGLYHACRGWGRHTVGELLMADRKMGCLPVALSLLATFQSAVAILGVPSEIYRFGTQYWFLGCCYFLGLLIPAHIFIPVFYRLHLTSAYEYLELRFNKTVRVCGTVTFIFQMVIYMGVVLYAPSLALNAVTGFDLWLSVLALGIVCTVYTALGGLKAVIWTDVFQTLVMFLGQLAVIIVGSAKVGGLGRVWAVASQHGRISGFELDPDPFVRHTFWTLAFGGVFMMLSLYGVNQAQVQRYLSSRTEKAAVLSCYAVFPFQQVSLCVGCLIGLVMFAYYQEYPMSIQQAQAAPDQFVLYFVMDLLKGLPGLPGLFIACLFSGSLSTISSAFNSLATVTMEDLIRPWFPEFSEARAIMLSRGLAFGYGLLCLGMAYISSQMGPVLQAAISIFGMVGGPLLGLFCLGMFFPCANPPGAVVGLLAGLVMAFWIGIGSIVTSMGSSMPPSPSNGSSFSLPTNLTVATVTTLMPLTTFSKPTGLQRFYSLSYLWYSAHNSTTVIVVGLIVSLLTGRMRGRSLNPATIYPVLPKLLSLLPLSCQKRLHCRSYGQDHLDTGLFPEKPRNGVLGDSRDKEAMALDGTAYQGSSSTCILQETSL
UniProt Q9Y619: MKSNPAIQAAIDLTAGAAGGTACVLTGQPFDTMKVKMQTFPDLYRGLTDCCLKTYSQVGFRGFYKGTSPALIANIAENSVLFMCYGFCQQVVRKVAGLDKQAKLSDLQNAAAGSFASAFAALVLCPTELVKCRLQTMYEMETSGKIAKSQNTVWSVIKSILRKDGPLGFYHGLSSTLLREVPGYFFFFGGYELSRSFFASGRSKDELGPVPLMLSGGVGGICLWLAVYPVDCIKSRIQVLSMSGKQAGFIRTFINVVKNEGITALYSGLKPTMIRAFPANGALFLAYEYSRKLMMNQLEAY

Compound in the first experiment: CC(C)C1=C2N=C(C=C(N2N=C1)NCC3=CC=CC=C3)NCCCCCCN
In words: log2 fold change, soluble protein after heating vs DMSO (PISA); higher = thermal stabilisation; K562 cells, 10 uM, 30 min; active = over 0.2 and 3.5 SD of the protein, either way, in both replicates (recomputed). A digest of the protocol: (§1)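 Soluble protein was defined as the supernatant after 21,000xg for 90 min. It came from K562 cells at 2×10^6 cells/mL given 10 μM compound for 30 min, heated in aliquots for 3 min across 48°C-58°C, pooled, and extracted in PBS with 0.5% NP-40 at 4°C, and was quantified by TMTpro 16plex LC-MS/MS with equalised channel sums. Thermal stability against control samples, from duplicates, is reported as log2 fold change.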
For the target SLC25A33 (UniProt Q9BSK2), the log2 fold change is inactive: -0.013.
For the target SLC4A7 isoform 7 (UniProt Q9Y6M7), the log2 fold change is inactive: 0.055.
The same measure, in the same setting: as for SLC25A12 (UniProt O75746), the figure is inactive: 0.05.
Take SLC12A6 isoform 2 (UniProt Q9UHW9): the log2 fold change is inactive: -0.017.
For the target SLC39A7 (UniProt Q92504), the log2 fold change is inactive: 0.002.
As for SLC43A3 isoform 2 (UniProt Q8NBI5), the log2 fold change was inactive: 0.183.
On to SLC37A4 isoform 2 (UniProt O43826), for which the log2 fold change was inactive: 0.136.
As for SLC25A11 (UniProt Q02978), the log2 fold change is inactive: 0.05.
Same read-out and setting: to SLC25A21 (UniProt Q9BQT8) belongs inactive: 0.076; to SLC25A10 isoform 2 (UniProt Q9UBX3), inactive: 0.106.
Same read-out and setting: to SLC25A19 (UniProt Q9HC21) belongs inactive: 0.057; to SLC2A1 (UniProt P11166), inactive: 0.06; to SLC29A1 isoform 2 (UniProt Q99808), inactive: 0.201.
Regarding SLC30A9 (UniProt Q6PML9), the log2 fold change was inactive: -0.072.
Same read-out and setting: to SLC25A20 (UniProt O43772) belongs inactive: 0.054; to SLC39A10 (UniProt Q9ULF5), inactive: 0.187; to SLC20A2 (UniProt Q08357), inactive: 0.016.
As to SLC1A4 (UniProt P43007), the log2 fold change is inactive: 0.146.
On the same count and under the same terms, as for SLC30A5 (UniProt Q8TAD4), the figure is inactive: 0.075.
Still for that read-out and setting: as for SLC25A3 isoform 2 (UniProt Q00325), the figure is inactive: 0.053; as for SLC7A5 (UniProt Q01650), inactive: 0.171; as for SLC35B3 (UniProt Q9H1N7), inactive: 0.005.
Same read-out and setting: as for SLC7A1 (UniProt P30825), the figure is inactive: 0.054; as for SLC25A40 (UniProt Q8TBP6), inactive: 0.05.
As for SLC2A3 (UniProt P11169), the log2 fold change was inactive: 0.113.
SLC26A6 (UniProt Q9BXS9): the log2 fold change is inactive: 0.062.
On the same count and under the same terms, to SLC25A17 (UniProt O43808) belongs inactive: -0.005; to SLC25A32 (UniProt Q9H2D1), inactive: 0.03; to SLC12A9 (UniProt Q9BXP2), inactive: -0.165.
Turning to SLC1A5 (UniProt Q15758), the log2 fold change was inactive: 0.23.
Still for that read-out and setting: to SLC6A8 (UniProt P48029) belongs inactive: 0.046; to SLC3A2 isoform 3 (UniProt P08195), inactive: 0.169; to SLC25A1 (UniProt P53007), inactive: 0.091.
Take SLC20A1 (UniProt Q8WUM9): the log2 fold change is inactive: 0.05.
The same measure, in the same setting: as for SLC12A2 (UniProt P55011), the figure is inactive: 0.159; as for SLC38A10 (UniProt Q9HBR0), inactive: 0.166.
For SLC5A3 (UniProt P53794), the log2 fold change is inactive: 0.165.
Same read-out and setting: as for SLC5A6 (UniProt Q9Y289), the figure is inactive: 0.165; as for SLC25A15 (UniProt Q9Y619), inactive: 0.083.

Compound in a further experiment: CC(C)C[C@@H](C=O)NC(=O)[C@H](CC(C)C)NC(=O)[C@H](CC(C)C)NC(=O)OCc1ccccc1
The description is as above. In short, it runs like this: as §1
In the case of SLC25A33 (UniProt Q9BSK2), the log2 fold change is inactive: -0.008.
Consider SLC4A7 isoform 7 (UniProt Q9Y6M7), for which the log2 fold change was inactive: 0.038.
Still for that read-out and setting: to SLC25A12 (UniProt O75746) belongs inactive: -0.004; to SLC12A6 isoform 2 (UniProt Q9UHW9), inactive: -0.02.
SLC39A7 (UniProt Q92504): the log2 fold change is inactive: -0.051.
In the case of SLC43A3 isoform 2 (UniProt Q8NBI5), the log2 fold change was inactive: -0.041.
On the same count and under the same terms, as for SLC37A4 isoform 2 (UniProt O43826), the figure is inactive: 0.06; as for SLC25A11 (UniProt Q02978), inactive: -0.027.
Consider SLC25A21 (UniProt Q9BQT8), for which the log2 fold change was inactive: -0.011.
Same read-out and setting: to SLC25A10 isoform 2 (UniProt Q9UBX3) belongs inactive: 0.034; to SLC25A19 (UniProt Q9HC21), inactive: -0.028.
The same measure, in the same setting: to SLC2A1 (UniProt P11166) belongs inactive: 0.007; to SLC29A1 isoform 2 (UniProt Q99808), inactive: -0.173.
Consider SLC30A9 (UniProt Q6PML9), for which the log2 fold change was inactive: 0.095.
The same measure, in the same setting: to SLC25A20 (UniProt O43772) belongs inactive: -0.025; to SLC39A10 (UniProt Q9ULF5), inactive: 0.022.
Still for that read-out and setting: to SLC20A2 (UniProt Q08357) belongs inactive: 0.175; to SLC1A4 (UniProt P43007), inactive: -0.021; to SLC30A5 (UniProt Q8TAD4), inactive: 0.016.
Same read-out and setting: to SLC25A3 isoform 2 (UniProt Q00325) belongs inactive: -0.011; to SLC7A5 (UniProt Q01650), inactive: -0.013; to SLC35B3 (UniProt Q9H1N7), inactive: 0.006.
As to SLC7A1 (UniProt P30825), the log2 fold change is inactive: 0.004.
As for SLC25A40 (UniProt Q8TBP6), the log2 fold change is inactive: 0.009.
With SLC2A3 (UniProt P11169), the log2 fold change was inactive: -0.015.
On the same count and under the same terms, to SLC26A6 (UniProt Q9BXS9) belongs inactive: 0.129.
In the case of SLC25A17 (UniProt O43808), the log2 fold change is inactive: -0.058.
Regarding SLC25A32 (UniProt Q9H2D1), the log2 fold change is inactive: -0.049.
SLC12A9 (UniProt Q9BXP2): the log2 fold change is inactive: 0.033.
Consider SLC1A5 (UniProt Q15758), for which the log2 fold change was inactive: -0.052.
As for SLC6A8 (UniProt P48029), the log2 fold change was inactive: -0.002.
Still for that read-out and setting: to SLC3A2 isoform 3 (UniProt P08195) belongs inactive: 0.013.
As for SLC25A1 (UniProt P53007), the log2 fold change is inactive: -0.006.
On the same count and under the same terms, as for SLC20A1 (UniProt Q8WUM9), the figure is inactive: 0.114.
On to SLC12A2 (UniProt P55011), for which the log2 fold change was inactive: 0.013.
As for SLC38A10 (UniProt Q9HBR0), the log2 fold change is inactive: 0.04.
With SLC5A3 (UniProt P53794), the log2 fold change was inactive: -0.045.
Turning to SLC5A6 (UniProt Q9Y289), the log2 fold change is inactive: -0.021.
Same read-out and setting: as for SLC25A15 (UniProt Q9Y619), the figure is inactive: 0.011.

For the origin of these results see the supplement of paper PMC10849652.
